Test results taken from paper PMC11329664.
These are yes or no findings as the source states them, for the method shown.

Amino acid sequences for entries named in this document (tags omitted). Residues count along the entry.
UniProt P25942, residues 21-277: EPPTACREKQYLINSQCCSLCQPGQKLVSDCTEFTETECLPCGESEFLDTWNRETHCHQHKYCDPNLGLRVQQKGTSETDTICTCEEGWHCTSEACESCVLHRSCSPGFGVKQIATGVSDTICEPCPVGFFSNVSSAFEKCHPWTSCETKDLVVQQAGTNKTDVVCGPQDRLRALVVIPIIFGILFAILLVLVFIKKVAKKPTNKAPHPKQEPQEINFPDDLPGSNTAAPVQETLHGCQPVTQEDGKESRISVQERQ

Columns and labels:
[1] = molecular target: endogenous CD40 on primary B cells (and monocytes) (human (endogenous in primary B cells and monocytes)) (UniProt P25942); test: scanning fluorescence correlation spectroscopy with brightness-transit statistics (sFCS BTS); CD40 on primary monocytes followed through AF647-labelled anti-CD40 Fab-His tethered to a supported lipid bilayer; 37 °C
[2] = molecular target: endogenous CD40 on primary B cells (and monocytes) (human (endogenous in primary B cells and monocytes)) (UniProt P25942); test: scanning fluorescence correlation spectroscopy with brightness-transit statistics (sFCS BTS); CD40 on primary B cells followed through AF647-labelled anti-CD40 Fab-His tethered to a supported lipid bilayer; brightness compared with the plain bilayer; 37 °C

“endogenous CD40 on primary B cells (and monocytes) (from UniProt P25942 21-277) (receptor)” was tested, and the binding [1] was “no binding” and the binding [2] was “no binding”.
